Source: the supplement of paper PMC4604168 (melanoma cell lines)
The list shows a part of the results. Many values rest on one well or one pass, so single values are uncertain.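 Imaging used 1,536-well plates; nuclei positive for cleaved PARP by antibody were divided by total DNA-stained nuclei to yield the apoptosis fraction. Doses for screening kept most cells viable, and cell lines differ markedly in resting and induced cleaved-PARP levels.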

Columns and labels:
Experiment in all cases: cleaved PARP positive nuclei fraction relative to DMSO control; melanoma cells; higher = more apoptosis
Conditions in all cases: library dose: low library concentration; 72 h
[1] = tested on: WM115
[2] = tested on: WM1716
[3] = tested on: WM1745
[4] = tested on: WM3526
[5] = tested on: WM3619
[6] = tested on: WM451Lu

SMILES	cleaved PARP positive nuclei fraction [1] [%]	cleaved PARP positive nuclei fraction [2] [%]	cleaved PARP positive nuclei fraction [3] [%]	cleaved PARP positive nuclei fraction [4] [%]	cleaved PARP positive nuclei fraction [5] [%]	cleaved PARP positive nuclei fraction [6] [%]
OCc1c[nH]c2ccccc12 [Indole-3-carbinol] + N#Cc1c(O)c2c(-c3ccc(-c4ccccc4O)cc3)csc2[nH]c1=O [A769662] (first compound 0.8 µM, partner dose 2 µM)	72.6	50.9	77.2	74.1	87.2	64.9
Cn1cncc1[C@@](N)(c1ccc(Cl)cc1)c1ccc2c(c1)c(-c1cccc(Cl)c1)cc(=O)n2C [tipifarnib] + O=S(=O)(c1ccccc1)N(CC(F)(F)F)c1ccc(C(O)(C(F)(F)F)C(F)(F)F)cc1 [T0901317] (first compound 0.01 µM, partner dose 1.4 µM)	49.2	86.2	259	67.3	74.4	356
Cn1nnc2c(C(N)=O)ncn2c1=O [temozolomide] + Oc1nc(-c2ccc(C(F)(F)F)cc2)nc2c1CSCC2 [XAV939] (first compound 2 µM, partner dose 2 µM)	150	127	110	58.3	103	82.4
CC1(C)NC(=O)N(c2ccc([N+](=O)[O-])c(C(F)(F)F)c2)C1=O [nilutamide] + COc1ccc2c(c1)CCC1C2CCC2(C)C(NCCCCCCN3C(=O)C=CC3=O)CCC12 [U73122] (first compound 1 µM, partner dose 0.4 µM)	391	66.9	107	74.5	91.6	122
C[C@@H]1CCN(C(=O)CC#N)C[C@@H]1N(C)c1ncnc2[nH]ccc12 + CN(NC(=O)CC(=O)NN(C)C(=S)c1ccccc1)C(=S)c1ccccc1 [STA4783] (first compound 1 µM, partner dose 0.006 µM)	74.5	66.3	204	119	113	51.7
OCc1c[nH]c2ccccc12 [Indole-3-carbinol] + Oc1nc(-c2ccc(C(F)(F)F)cc2)nc2c1CSCC2 [XAV939] (first compound 0.8 µM, partner dose 2 µM)	71.5	255	112	67.5	97.5	366
Cn1c(Nc2ccc(C(F)(F)F)cc2)nc2cc(Oc3ccnc(-c4ncc(C(F)(F)F)[nH]4)c3)ccc21 + NC(=O)Nc1cc(-c2cccc(F)c2)sc1C(=O)N[C@H]1CCCNC1 [AZD7762] (first compound 0.08 µM, partner dose 0.02 µM)	1250	293	102	140	117	48.9
C=CCn1c(=O)c2cnc(Nc3ccc(N4CCN(C)CC4)cc3)nc2n1-c1cccc(C(C)(C)O)n1 + CO[C@@H]1[C@H](N(C)C(=O)c2ccccc2)C[C@H]2O[C@]1(C)n1c3ccccc3c3c4c(c5c6ccccc6n2c5c31)C(=O)NC4 [Midostaurin] (first compound 0.02 µM, partner dose 0.08 µM)	532	284	162	144	122	57.1
C=CCn1c(=O)c2cnc(Nc3ccc(N4CCN(C)CC4)cc3)nc2n1-c1cccc(C(C)(C)O)n1 + O=C(O)C(=O)Nc1sc2c(c1C(=O)O)CCNC2 [TCS401] (first compound 0.02 µM, partner dose 1.66667 µM)	50.8	51.5	136	335	109	57.8
COCC[n+]1c2c(n(Cc3cnccn3)c1C)C(=O)c1ccccc1C2=O + CCCCCCCCCCCC1=C(O)C(=O)C=C(O)C1=O [Embelin] (first compound 0.0004 µM, partner dose 1.2 µM)	71.6	138	105	73.8	71.6	162
C=CCn1c(=O)c2cnc(Nc3ccc(N4CCN(C)CC4)cc3)nc2n1-c1cccc(C(C)(C)O)n1 + c1cc(-c2cnn3cc(-c4ccc(OCCN5CCCCC5)cc4)cnc23)ccn1 [Dorsomorphin] (first compound 0.02 µM, partner dose 0.4 µM)	104	104	169	85.1	99	99.1
NC(=O)Nc1cc(-c2cccc(F)c2)sc1C(=O)N[C@H]1CCCNC1 + Cn1cc(/C=C2\C(=O)Nc3cccnc32)c2ccccc21 [GW441756] (first compound 0.02 µM, partner dose 0.4 µM)	170	58	118	92.2	217	63.7
Nc1cccc2c1CN(C1CCC(=O)NC1=O)C2=O (stereo not given) [lenalidomide] + COc1ccc(COc2ccc(Cc3cnc(N)nc3N)cc2OC)cc1 [GW2580] (first compound 1 µM, partner dose 1 µM)	67.4	160	108	85.9	78.6	269
COc1cc(Nc2ncc(F)c(Nc3ccc4c(n3)NC(=O)C(C)(C)O4)n2)cc(OC)c1OC [Tamatinib] + O=C(O)c1ccc(-c2c[nH]c3ncc(-c4ccccc4)cc23)cc1C1CCCC1 [GSK650394] (first compound 0.4 µM, partner dose 0.16 µM)	85.3	64.2	112	34.8	88.7	81.6
CO[C@@H]1[C@H](N(C)C(=O)c2ccccc2)C[C@H]2O[C@]1(C)n1c3ccccc3c3c4c(c5c6ccccc6n2c5c31)C(=O)NC4 [Midostaurin] + Oc1cc(-c2nc(-c3ccccc3)[nH]c2-c2ccncc2)ccc1Cl [L779450] (first compound 0.08 µM, partner dose 0.2 µM)	114	79.1	126	573	112	64.3

Another view of some results above.

| SMILES | cleaved PARP positive nuclei fraction [1] [%] | cleaved PARP positive nuclei fraction [2] [%] | cleaved PARP positive nuclei fraction [3] [%] | cleaved PARP positive nuclei fraction [4] [%] | cleaved PARP positive nuclei fraction [5] [%] | cleaved PARP positive nuclei fraction [6] [%] |
| --- | --- | --- | --- | --- | --- | --- |
| Nc1cccc2c1CN(C1CCC(=O)NC1=O)C2=O (stereo not given) [lenalidomide] + COc1ccc(COc2ccc(Cc3cnc(N)nc3N)cc2OC)cc1 [GW2580] (first compound 1 µM, partner dose 1 µM) | 67.4 | 160 | 108 | 85.9 | 78.6 | 269 |
| COc1cc(Nc2ncc(F)c(Nc3ccc4c(n3)NC(=O)C(C)(C)O4)n2)cc(OC)c1OC [Tamatinib] + O=C(O)c1ccc(-c2c[nH]c3ncc(-c4ccccc4)cc23)cc1C1CCCC1 [GSK650394] (first compound 0.4 µM, partner dose 0.16 µM) | 85.3 | 64.2 | 112 | 34.8 | 88.7 | 81.6 |
